Results published in patent US20090170762A1, “Treatment of Diabetes Related Obesity” (UUTech Limited, priority 2005, published 2009).
Not every detail of the peptide structures is certain; ends, links or a residue may be inferred. Square brackets hold non-standard residues; d marks the D form. Ends that are not written are not given here. * marks the point of attachment. Palmitoyl = CCCCCCCCCCCCCCCC(=O)*; Hyp = O=C(O)[C@@H]1C[C@@H](O)CN1

Legend:
human GIP-R = molecular target: T1, human GIP-R (Homo sapiens, UniProt P48546); experiment: Cyclic AMP production in GIP-R transfected CHL cells; format: cell-based; details: for inhibition of GIP-stimulated cAMP production: in presence of GIP (10^-7 m)
T1 construct: expressed in transfected cells; host or cells: Chinese Hamster Lung (CHL) fibroblast cells, stably transfected
T1 sequence (P48546 22-466): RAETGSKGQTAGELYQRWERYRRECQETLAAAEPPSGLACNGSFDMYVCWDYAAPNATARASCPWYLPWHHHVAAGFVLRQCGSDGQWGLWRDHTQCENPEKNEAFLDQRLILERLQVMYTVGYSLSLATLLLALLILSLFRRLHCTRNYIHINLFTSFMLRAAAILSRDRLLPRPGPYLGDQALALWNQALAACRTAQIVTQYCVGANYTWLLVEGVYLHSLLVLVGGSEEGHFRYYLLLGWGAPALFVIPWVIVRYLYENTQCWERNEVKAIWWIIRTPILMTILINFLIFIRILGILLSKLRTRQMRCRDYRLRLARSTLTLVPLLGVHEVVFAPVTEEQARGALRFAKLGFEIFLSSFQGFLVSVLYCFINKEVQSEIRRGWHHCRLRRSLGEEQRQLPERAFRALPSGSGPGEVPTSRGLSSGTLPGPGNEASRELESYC
Description: Tissue Culture. […] (v/v) fetal bovine serum, 1% (v/v) antibiotics (100 U/ml penicillin, 0.1 mg/ml streptomycin) (all from Gibco, Paisley, Strathclyde, Scotland). BRIN-BD11 cells were cultured in RPMI-1640 tissue culture medium containing 10% (v/v) fetal bovine serum, 1% (v/v) antibiotics (100 U/ml penicillin, 0.1 mg/ml streptomycin) and 11.1 mm glucose. The origin and secretory characteristics of these cells have been described in detail previously (McClenaghan, N. H. et al., 1996, Diabetes 45:1132-1140). The cells were maintained in sterile tissue culture flasks (Corning Glass Works, Sunderland, UK) at 37° C. in an atmosphere of 5% CO2 and 95% air using a LEEC incubator (Laboratory Technical Engineering, Nottingham, UK).
Methods. […] The culture medium was removed and cells subsequently washed twice with 2 ml ice-cold HBS buffer (130 mm NaCl, 20 mm HEPES, 0.9 mm NaHPO4, 0.8 mm MgSO4, 5.4 mm KCl, 1.8 mm CaCl2, 5.6 mm glucose and 25 μm phenol red) (pH 7.4). […] The medium was subsequently removed and the cells lysed with […] of lysing solution (5% TCA, 3% SDS, 92% H2O, also containing 0.1 mm unlabelled cAMP and 0.1 mm unlabelled ATP) (Sigma, Poole, Dorset, UK). The plates were then left on a shaker at room temperature for 30 minutes and tritiated cAMP formation determined by column chromatography using Dowex and alumina ion exchange columns (BioRad Life Science Research, Alpha Analytical, Larne, UK) as previously described (Gault, V. A. et al 2002, Biochem. J. 367:913-920).

BRIN-BD11 cells = experiment: Insulin secretion from BRIN-BD11 cells; format: cell-based; details: for Maximal insulin response (% GIP max) / Insulin response in presence of 10^-7 M GIP (% GIP max): BRIN-BD11 cells, 5.6 mm glucose; for Maximal insulin response (% GIP max): 20 min; for Insulin response in presence of 10^-7 M GIP (% GIP max): in presence of 10^-7 M native GIP
Description: Tissue Culture. Chinese Hamster Lung (CHL) fibroblast cells stably transfected with the human GIP-R were cultured in DMEM tissue culture medium containing 10%. (v/v) fetal bovine serum, 1% (v/v) antibiotics (100 U/ml penicillin, 0.1 mg/ml streptomycin) (all from Gibco, Paisley, Strathclyde, Scotland). BRIN-BD11 cells were cultured in RPMI-1640 tissue culture medium containing 10% (v/v) fetal bovine serum, 1% (v/v) antibiotics (100 U/ml penicillin, 0.1 mg/ml streptomycin) and 11.1 mm glucose. The origin and secretory characteristics of these cells have been described in detail previously (McClenaghan, N. H. et al., 1996, Diabetes 45:1132-1140). The cells were maintained in sterile tissue culture flasks (Corning Glass Works, Sunderland, UK) at 37° C. in an atmosphere of 5% CO2 and 95% air using a LEEC incubator (Laboratory Technical Engineering, Nottingham, UK).
Methods. Insulin release from BRIN-BD11 cells was determined by use of cell monolayers as described previously (Gault, V. A. et al. 2002, Biochem. J. 367:913-920). In brief, BRIN-BD11 cells were seeded into 24-well plates (Nunc, Roskilde, Denmark) at a density of 1.5×10^5 cells per well and allowed to attach overnight in RPMI-1640 culture medium at 37° C. Acute tests for insulin secretion were preceded by 40 minutes pre-incubation at 37° C. in 1.0 ml Krebs Ringer Bicarbonate Buffer (KRBB, 115 mm NaCl, 4.7 mm KCl, 1.28 mm CaCl2, 1.2 mM MgSO4, 1.2 mm KH2PO4, 25 mM HEPES and 10 mm NaHCO3; pH 7.4 with NaOH) supplemented with 0.1% (w/v) BSA and 1.1 mM glucose. […] After 20 minutes incubation, the buffer was removed and used for measurement of insulin by radioimmunoassay (Flatt, P. R. and Bailey, C. J., 1981, Diabetologia 5:573-577).

ob/ob mice = experiment: 14 once-daily injections of GIP analogues in ob/ob mice; format: in vivo, mouse; details: 14 days daily, insulin 50 U/kg
Description: Animals. Obese diabetic (ob/ob) mice derived from the colony maintained at Aston University, UK (Bailey C. J. et al., 1982, Int. J. Obes. 6:11-21) were used at 14-18 weeks of age. Animals were age-matched, divided into groups and housed individually in an air-conditioned room at 22±2° C. with a 12 hour light: 12 hour dark cycle (08:00-20:00 hr). Drinking water and a standard rodent maintenance diet (Trouw Nutrition, Cheshire, UK) were freely available. All animal experiments were carried out in accordance with the UK Animals (Scientific Procedures) Act 1986.
Methods. […] Intraperitoneal glucose tolerance (18 mmol/kg body wt) and insulin sensitivity (50 U/kg body wt) tests were performed at the end of the study period. Blood samples taken from the cut tip of the tail vein of conscious mice at the times indicated in the Figures were immediately centrifuged using a Beckman microcentrifuge (Beckman Instruments, UK) for 30 seconds at 13,000×g. The resulting plasma was then aliquoted into fresh Eppendorf tubes and stored at −20° C. prior to glucose and insulin determinations.

| Substance | inhibition of GIP-stimulated cAMP production (human GIP-R) | EC50 (human GIP-R; read-out: Cyclic AMP EC50, GIP-R transfected CHL cells, 20 min, 10^-13 to 10^-7 m) [nM] | Maximal insulin response (% GIP max) (BRIN-BD11 cells) | Insulin response in presence of 10^-7 M GIP (% GIP max) (BRIN-BD11 cells) | hypoglycemic action of insulin (ob/ob mice) | effect on GIP-stimulated insulin secretion (BRIN-BD11 cells; in presence of GIP (10^-7 m)) |
| --- | --- | --- | --- | --- | --- | --- |
| YA[Hyp]GTFISDYSIAMDK(Palmitoyl)IHQQDFVNWLLAQKGKKNDWKHNITQ [(Hyp^3)LysPAL^16GIP] | similarly inhibited | 138 | 64 ± 5 | 62 ± 3 | significantly augmented |  |
| YA[Hyp]GTFISDYSIAMDKIHQQDFVNWLLAQKGKKNDWKHNITQ [(Hyp^3)GIP] | similarly inhibited |  | 56 ± 7 | 71 ± 7 | significantly augmented | significantly inhibited |
